In the supplement of paper PMC10849652:
This is one part of the list.

Protein sequences, listed by entry. Tags and fused reporters are not part of them. Lines headed by an entry give the natural chain unless they say otherwise; changes in a name come on top.
UniProt Q9BXL7: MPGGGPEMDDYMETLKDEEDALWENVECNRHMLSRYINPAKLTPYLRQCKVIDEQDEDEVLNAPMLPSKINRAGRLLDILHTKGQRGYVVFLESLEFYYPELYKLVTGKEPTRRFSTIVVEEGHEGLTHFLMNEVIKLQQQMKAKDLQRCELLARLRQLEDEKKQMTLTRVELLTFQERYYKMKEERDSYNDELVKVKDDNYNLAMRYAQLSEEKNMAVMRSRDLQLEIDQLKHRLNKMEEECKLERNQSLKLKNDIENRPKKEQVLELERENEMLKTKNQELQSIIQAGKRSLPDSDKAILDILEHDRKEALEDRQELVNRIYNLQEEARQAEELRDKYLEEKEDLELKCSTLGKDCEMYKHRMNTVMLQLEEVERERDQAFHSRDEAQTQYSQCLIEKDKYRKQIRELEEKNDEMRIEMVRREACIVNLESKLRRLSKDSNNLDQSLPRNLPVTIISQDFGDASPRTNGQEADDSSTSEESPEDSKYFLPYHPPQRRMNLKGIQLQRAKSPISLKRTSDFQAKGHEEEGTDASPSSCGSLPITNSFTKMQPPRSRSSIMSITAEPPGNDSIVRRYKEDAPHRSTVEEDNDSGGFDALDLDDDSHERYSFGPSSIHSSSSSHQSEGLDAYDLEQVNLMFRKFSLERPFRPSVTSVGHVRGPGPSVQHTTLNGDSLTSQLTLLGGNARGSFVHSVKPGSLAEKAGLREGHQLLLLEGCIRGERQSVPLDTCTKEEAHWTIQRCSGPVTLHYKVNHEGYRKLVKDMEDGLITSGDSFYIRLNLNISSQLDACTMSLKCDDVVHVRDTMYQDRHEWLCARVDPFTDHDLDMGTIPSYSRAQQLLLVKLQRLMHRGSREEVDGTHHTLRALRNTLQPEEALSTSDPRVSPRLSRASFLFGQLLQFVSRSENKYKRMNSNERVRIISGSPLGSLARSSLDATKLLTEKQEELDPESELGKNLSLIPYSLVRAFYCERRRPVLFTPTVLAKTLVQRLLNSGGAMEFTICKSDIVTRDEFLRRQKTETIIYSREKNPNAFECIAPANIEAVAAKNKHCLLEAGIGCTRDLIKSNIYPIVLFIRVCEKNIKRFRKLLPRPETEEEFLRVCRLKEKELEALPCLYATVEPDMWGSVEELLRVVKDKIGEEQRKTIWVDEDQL
UniProt Q96MD7: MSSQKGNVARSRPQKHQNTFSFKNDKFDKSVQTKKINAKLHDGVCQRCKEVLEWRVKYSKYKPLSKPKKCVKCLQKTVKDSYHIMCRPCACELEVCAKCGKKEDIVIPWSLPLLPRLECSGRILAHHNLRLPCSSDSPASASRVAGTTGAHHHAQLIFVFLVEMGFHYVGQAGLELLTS
UniProt P0DMB2: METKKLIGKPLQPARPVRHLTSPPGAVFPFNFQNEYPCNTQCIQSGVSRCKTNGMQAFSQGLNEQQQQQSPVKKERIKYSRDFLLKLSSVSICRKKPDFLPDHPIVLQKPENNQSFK
UniProt Q9Y297: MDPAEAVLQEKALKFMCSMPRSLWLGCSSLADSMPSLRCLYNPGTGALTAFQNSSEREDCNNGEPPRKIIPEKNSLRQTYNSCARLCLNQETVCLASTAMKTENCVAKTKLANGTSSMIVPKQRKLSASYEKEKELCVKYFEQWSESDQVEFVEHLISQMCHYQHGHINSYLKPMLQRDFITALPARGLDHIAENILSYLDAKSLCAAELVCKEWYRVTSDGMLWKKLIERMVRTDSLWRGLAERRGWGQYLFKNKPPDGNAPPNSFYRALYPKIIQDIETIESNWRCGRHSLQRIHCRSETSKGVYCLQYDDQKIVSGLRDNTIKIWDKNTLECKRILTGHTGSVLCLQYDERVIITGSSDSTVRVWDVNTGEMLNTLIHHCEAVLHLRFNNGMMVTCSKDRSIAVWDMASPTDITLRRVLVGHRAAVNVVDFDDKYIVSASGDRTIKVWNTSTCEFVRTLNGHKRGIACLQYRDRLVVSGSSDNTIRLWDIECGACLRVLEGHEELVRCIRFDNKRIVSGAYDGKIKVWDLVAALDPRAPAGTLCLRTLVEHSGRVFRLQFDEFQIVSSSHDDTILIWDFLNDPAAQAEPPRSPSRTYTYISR
UniProt Q9Y2G2: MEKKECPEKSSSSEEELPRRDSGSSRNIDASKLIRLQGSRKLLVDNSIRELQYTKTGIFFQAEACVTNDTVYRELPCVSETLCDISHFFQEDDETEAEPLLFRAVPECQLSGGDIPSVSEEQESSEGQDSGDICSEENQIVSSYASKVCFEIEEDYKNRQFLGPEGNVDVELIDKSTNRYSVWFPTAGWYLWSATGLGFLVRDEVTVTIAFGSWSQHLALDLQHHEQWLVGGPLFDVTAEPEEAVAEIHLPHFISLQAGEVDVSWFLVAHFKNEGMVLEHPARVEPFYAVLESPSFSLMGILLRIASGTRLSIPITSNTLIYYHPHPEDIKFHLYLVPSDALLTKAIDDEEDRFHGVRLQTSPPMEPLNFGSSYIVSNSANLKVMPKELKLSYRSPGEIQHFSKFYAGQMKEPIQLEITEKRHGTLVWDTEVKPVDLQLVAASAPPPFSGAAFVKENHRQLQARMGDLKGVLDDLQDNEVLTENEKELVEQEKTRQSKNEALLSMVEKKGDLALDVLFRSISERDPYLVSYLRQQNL
UniProt P01031, whole entry, looked up: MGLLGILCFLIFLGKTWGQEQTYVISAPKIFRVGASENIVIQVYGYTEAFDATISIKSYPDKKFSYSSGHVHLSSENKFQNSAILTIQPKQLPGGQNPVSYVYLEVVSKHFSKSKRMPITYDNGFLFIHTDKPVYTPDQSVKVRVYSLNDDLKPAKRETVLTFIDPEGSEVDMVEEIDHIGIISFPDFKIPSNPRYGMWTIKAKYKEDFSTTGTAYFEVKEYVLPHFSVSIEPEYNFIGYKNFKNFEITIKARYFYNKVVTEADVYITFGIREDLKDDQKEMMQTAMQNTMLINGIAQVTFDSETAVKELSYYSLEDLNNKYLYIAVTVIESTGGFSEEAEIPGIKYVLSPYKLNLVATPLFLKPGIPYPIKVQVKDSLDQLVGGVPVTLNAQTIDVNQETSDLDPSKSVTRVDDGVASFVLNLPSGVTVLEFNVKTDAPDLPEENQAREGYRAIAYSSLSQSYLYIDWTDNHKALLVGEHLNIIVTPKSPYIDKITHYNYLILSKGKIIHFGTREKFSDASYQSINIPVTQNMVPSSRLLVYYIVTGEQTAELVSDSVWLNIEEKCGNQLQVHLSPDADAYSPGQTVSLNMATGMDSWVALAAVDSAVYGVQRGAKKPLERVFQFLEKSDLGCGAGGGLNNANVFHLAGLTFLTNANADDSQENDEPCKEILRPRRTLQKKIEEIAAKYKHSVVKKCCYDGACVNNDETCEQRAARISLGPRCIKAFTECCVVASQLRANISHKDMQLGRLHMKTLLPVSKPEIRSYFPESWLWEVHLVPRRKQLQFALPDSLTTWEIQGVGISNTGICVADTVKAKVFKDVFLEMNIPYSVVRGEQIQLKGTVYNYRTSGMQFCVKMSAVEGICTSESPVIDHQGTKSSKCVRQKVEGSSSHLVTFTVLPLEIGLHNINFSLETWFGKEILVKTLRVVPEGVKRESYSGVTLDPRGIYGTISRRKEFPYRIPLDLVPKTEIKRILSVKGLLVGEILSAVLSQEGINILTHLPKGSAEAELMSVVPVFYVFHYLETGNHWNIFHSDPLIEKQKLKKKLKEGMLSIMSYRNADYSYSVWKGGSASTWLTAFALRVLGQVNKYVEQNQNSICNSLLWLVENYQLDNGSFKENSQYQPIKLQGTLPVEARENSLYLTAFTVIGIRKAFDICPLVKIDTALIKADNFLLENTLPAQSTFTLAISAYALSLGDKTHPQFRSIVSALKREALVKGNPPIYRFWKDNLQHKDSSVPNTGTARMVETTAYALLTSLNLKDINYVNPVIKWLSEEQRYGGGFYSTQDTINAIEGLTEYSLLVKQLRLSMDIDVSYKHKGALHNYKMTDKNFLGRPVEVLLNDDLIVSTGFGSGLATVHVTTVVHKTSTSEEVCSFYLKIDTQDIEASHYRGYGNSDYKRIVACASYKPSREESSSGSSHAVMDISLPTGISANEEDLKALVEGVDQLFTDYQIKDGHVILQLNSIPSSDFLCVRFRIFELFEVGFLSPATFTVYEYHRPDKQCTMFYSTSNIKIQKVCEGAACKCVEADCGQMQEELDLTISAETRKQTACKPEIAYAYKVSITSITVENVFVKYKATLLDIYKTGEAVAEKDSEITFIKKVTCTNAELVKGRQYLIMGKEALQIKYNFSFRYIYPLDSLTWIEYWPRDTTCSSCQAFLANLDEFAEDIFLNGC
UniProt Q9BRD0: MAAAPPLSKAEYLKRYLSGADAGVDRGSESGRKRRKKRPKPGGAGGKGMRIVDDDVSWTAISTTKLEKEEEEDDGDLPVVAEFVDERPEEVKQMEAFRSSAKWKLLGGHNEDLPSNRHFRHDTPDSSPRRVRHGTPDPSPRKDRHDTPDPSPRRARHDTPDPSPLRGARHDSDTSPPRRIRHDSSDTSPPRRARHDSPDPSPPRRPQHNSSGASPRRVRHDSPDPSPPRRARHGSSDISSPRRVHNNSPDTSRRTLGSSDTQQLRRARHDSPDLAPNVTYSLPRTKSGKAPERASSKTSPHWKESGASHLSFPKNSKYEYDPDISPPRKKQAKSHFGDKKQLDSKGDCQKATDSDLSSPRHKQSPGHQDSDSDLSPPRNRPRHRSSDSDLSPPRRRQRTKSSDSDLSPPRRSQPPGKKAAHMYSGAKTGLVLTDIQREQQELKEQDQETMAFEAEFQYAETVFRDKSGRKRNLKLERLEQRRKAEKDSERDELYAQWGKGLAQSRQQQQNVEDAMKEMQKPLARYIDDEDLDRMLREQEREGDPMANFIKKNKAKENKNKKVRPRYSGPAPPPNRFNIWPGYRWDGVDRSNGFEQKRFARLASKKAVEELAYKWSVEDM
UniProt P04003: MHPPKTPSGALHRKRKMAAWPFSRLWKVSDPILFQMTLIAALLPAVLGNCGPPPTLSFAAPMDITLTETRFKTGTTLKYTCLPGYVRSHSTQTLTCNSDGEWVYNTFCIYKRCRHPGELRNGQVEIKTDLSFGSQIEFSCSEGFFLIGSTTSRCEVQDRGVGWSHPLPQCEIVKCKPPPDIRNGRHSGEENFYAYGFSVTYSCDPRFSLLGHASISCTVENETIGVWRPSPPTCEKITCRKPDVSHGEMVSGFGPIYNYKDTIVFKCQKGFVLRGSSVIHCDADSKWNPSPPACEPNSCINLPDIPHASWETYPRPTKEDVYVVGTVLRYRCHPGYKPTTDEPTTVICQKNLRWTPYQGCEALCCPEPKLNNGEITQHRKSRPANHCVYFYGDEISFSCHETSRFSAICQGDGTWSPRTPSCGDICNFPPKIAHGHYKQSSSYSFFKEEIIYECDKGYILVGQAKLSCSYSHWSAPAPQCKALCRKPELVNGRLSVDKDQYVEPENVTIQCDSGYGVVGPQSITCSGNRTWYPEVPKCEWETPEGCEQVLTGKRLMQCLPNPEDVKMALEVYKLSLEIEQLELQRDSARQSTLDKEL
UniProt Q3KRA6: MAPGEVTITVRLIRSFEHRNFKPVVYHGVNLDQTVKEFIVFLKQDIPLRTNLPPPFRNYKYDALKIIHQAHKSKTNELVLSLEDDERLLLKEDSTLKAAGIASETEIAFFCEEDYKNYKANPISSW
UniProt Q96HA4: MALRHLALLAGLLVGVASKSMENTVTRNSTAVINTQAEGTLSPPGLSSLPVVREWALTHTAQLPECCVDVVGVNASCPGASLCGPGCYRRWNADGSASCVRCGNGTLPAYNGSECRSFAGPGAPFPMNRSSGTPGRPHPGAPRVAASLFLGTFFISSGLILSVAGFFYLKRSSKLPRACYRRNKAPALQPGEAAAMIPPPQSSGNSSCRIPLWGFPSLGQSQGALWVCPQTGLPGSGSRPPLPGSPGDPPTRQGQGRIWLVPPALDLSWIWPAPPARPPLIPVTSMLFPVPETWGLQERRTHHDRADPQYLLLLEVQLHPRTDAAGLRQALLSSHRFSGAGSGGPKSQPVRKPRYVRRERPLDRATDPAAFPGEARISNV
UniProt Q5SQH8: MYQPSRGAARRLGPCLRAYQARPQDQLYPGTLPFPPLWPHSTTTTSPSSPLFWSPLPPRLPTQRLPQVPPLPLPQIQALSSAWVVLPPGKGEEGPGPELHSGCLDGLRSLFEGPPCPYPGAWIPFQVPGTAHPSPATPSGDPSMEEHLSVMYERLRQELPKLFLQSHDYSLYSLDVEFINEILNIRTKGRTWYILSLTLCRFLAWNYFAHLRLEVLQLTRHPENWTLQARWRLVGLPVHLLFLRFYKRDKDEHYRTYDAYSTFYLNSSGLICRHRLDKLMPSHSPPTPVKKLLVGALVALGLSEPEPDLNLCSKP
UniProt Q96GV9: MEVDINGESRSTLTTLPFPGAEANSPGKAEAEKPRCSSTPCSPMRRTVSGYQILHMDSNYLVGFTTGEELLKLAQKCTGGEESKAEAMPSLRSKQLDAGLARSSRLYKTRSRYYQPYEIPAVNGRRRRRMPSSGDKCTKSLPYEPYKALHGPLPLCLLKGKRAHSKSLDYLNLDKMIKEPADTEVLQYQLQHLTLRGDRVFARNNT

Tests used:
Test in all cases: log2 fold change, soluble protein after heating vs DMSO (PISA); higher = thermal stabilisation; K562 cells, 10 uM, 30 min; active = over 0.2 and 3.5 SD of the protein, either way, in both replicates (recomputed)
[1] = compound: CC1=C(SC2=C1C(=N[C@H](C3=NN=C(N32)C)CC(=O)N)C4=CC=C(C=C4)Cl)C
Summary of the method: (§1)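 K562 cells at 2×10^6 cells/mL were exposed to 10 μM compound for 30 min, then aliquots were heated for 3 min across 48°C-58°C, pooled, and extracted in PBS containing 0.5% NP-40 at 4°C. The supernatant after 21,000xg for 90 min was taken as soluble protein and measured by TMTpro 16plex LC-MS/MS with channel sums equalised. Thermal stability is reported relative to control samples, with values from duplicates. Fold changes are given on a log2 scale.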

[2] = compound: c1ccc([C@@H]2C[C@H]2NC2CCNCC2)cc1
Summary of the method: as §1

[3] = compound: CC1=C2C(=CC=C1)N=C(N(C2=O)C3=CC=CC=C3C)CN4C=NC5=C(N=CN=C54)N
Summary of the method: as §1

[4] = compound: Cc1sc2c(c1C)C(c1ccc(Cl)cc1)=N[C@@H](CC(=O)OC(C)(C)C)c1nnc(C)n1-2
Summary of the method: as §1

[5] = compound: C1=CC=C(C=C1)[C@H](COC2=CC3=C(C=C2)NC(=O)N3)NC(=O)C4=CC=CN(C4=O)CC5=CC(=C(C=C5)F)F
Summary of the method: as §1

Target | log2 fold change [1] | log2 fold change [2] | log2 fold change [3] | log2 fold change [4] | log2 fold change [5]
CARD11 (UniProt Q9BXL7) | inactive: -0.003 | inactive: -0.071 |  |  | 
C9orf85 isoform 1 (UniProt Q96MD7) | inactive: 0.08 | inactive: 0.299 | inactive: -0.066 | inactive: 0.011 | 
C8orf88 (UniProt P0DMB2) | inactive: 0.008 | inactive: 0.279 | inactive: -0.149 |  | inactive: 0.083
BTRC (UniProt Q9Y297) |  |  | inactive: 0.242 | inactive: 0.029 | inactive: -0.013
CARD8 isoform 5 (UniProt Q9Y2G2) |  |  | inactive: 0.034 | inactive: -0.045 | inactive: 0.012
C5 (UniProt P01031) | inactive: -0.211 | inactive: 0.227 | inactive: 0.012 | inactive: 0.107 | 
C19orf54 (UniProt Q5BKX5) | inactive: -0.014 | inactive: 0.114 | inactive: 0.059 | inactive: 0.004 | 
C8orf37 (UniProt Q96NL8) |  |  |  | inactive: -0.039 | 
BUD13 (UniProt Q9BRD0) | inactive: -0.108 | inactive: 0.068 | inactive: 0.042 | inactive: 0.222 | 
C12orf60 (UniProt Q5U649) |  |  |  | inactive: -0.269 | inactive: -0.027
C4BPA (UniProt P04003) | inactive: 0.236 | inactive: -0.474 |  | inactive: 0.378 | inactive: 0.006
CA2 (UniProt P00918) |  |  | inactive: 0.052 | inactive: -0.023 | inactive: -0.056
C11orf74 (UniProt Q86VG3) |  |  | inactive: 0.114 | inactive: -0.05 | 
C11orf96 (UniProt Q7Z7L8) | inactive: -0.221 | inactive: 0.179 | inactive: -0.071 |  | 
C6orf120 (UniProt Q7Z4R8) |  |  | active: 0.37 | inactive: -0.038 | inactive: -0.018
C1orf112 (UniProt Q9NSG2) |  |  | inactive: 0.141 | inactive: -0.029 | 
C9 (UniProt P02748) | inactive: 0.413 | inactive: -0.107 |  | inactive: -0.027 | 
C2orf76 (UniProt Q3KRA6) |  |  | inactive: 0.079 | inactive: 0.053 | inactive: 0.042
CALD1 (UniProt Q05682) | inactive: -0.052 | inactive: 0.011 |  |  | 
C22orf39 (UniProt Q6P5X5) | inactive: 0.145 | inactive: -0.037 |  | inactive: -0.06 | inactive: 0.126
C1orf159 isoform 4 (UniProt Q96HA4) | inactive: 0.111 | inactive: 0.45 | inactive: 0.05 |  | inactive: 0.035
C6orf136 isoform 4 (UniProt Q5SQH8) |  |  |  | inactive: -0.37 | inactive: 0.178
C1orf167 isoform 2 (UniProt Q5SNV9) | inactive: -0.021 | inactive: 0.057 | inactive: 0.22 |  | inactive: -0.073
C5orf30 (UniProt Q96GV9) |  |  |  | inactive: -0.417 | 

2 entries drawn at random from those above, as already listed:
Target | log2 fold change [1] | log2 fold change [2] | log2 fold change [3] | log2 fold change [4] | log2 fold change [5]
C22orf39 (UniProt Q6P5X5) | inactive: 0.145 | inactive: -0.037 |  | inactive: -0.06 | inactive: 0.126
C8orf37 (UniProt Q96NL8) |  |  |  | inactive: -0.039 | 
